Source: US5723576A (Development Biotechnological Processes S.N.C., priority 1993, dated 1998)
Some peptides are written in HELM: one residue between dots, names in brackets for other building blocks, links after the first $.

Test: Boc solid-phase peptide synthesis; Boc-Glu(γBzl)-OCH2-PAM resin; symmetric anhydrides (DCC); PyBop for Boc-Aib-OH
Conditions: whole synthesis, 210 nm, scale 0.5 mmol

PEPTIDE1{I.R.Y.T.D.[dA].[bAla].[bAla].P.E.N.H.N.N.G.D.F.E.E.I.P.[Aib].[Aib].Y.L.E}$$$$V2.0
final HPLC purity: >99%
